This is one part of the list.
Columns and labels:
Test in all cases: log2 fold change, soluble protein after heating vs DMSO (PISA); higher = thermal stabilisation; K562 lysate, 10 uM; active = over 0.2 and 3.5 SD of the protein, either way, in both replicates (recomputed)
[1] = compound: C1=CC=C(C=C1)[C@H](COC2=CC3=C(C=C2)NC(=O)N3)NC(=O)C4=CC=CN(C4=O)CC5=CC(=C(C=C5)F)F
How it was run: (§1)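 Following dounce homogenisation of K562 pellets in PBS pH 7.4 with 1 mM MgCl2, crude extract at 1 mg/mL protein was incubated for 30 min with 10 μM compound. Aliquots were then heated for 3 min over 48°C-58°C and pooled, NP-40 was added to 0.5% at 4°C, and soluble protein was recovered as the supernatant at 21,000xg for 90 min. Channel-sum-equalised TMTpro 16plex LC-MS/MS quantified this protein. Each value, from duplicates, is a log-two fold change in thermal stability relative to solvent controls.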

The chains behind the UniProt entries cited, without tags or fusion partners. Where a name states a change or a piece, a line headed by the entry shows the natural chain unless it says otherwise.
UniProt Q9BTT0: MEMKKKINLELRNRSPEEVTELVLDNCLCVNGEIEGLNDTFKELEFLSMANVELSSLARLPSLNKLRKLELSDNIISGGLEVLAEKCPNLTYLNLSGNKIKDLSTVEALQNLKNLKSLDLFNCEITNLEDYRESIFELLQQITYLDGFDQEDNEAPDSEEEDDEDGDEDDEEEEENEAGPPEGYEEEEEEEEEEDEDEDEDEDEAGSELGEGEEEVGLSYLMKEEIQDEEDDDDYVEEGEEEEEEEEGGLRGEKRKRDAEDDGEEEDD
UniProt Q3SY69: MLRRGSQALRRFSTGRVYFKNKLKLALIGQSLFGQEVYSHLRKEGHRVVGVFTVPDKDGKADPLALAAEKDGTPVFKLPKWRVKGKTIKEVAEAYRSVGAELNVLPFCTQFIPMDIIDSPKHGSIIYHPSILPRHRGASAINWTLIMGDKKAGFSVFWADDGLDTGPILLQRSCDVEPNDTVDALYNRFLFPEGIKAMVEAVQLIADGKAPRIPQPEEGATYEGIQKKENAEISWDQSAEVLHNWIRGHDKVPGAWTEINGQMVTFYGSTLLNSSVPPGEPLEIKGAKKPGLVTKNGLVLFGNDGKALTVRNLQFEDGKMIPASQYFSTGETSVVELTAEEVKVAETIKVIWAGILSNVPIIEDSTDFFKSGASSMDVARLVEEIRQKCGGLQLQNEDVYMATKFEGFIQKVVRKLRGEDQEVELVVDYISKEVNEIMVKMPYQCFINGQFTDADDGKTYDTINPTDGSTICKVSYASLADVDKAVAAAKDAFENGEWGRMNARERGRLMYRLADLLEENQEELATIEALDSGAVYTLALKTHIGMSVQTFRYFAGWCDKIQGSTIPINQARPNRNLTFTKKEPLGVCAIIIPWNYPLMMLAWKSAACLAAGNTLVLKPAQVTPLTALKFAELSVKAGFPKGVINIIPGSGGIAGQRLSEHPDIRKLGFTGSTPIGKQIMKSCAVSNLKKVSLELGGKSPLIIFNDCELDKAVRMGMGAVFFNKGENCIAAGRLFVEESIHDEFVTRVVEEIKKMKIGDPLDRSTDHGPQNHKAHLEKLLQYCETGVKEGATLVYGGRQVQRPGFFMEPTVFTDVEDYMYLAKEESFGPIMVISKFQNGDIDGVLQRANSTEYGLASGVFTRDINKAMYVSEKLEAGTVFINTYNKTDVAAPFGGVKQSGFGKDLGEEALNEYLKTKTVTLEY
UniProt Q63HQ0: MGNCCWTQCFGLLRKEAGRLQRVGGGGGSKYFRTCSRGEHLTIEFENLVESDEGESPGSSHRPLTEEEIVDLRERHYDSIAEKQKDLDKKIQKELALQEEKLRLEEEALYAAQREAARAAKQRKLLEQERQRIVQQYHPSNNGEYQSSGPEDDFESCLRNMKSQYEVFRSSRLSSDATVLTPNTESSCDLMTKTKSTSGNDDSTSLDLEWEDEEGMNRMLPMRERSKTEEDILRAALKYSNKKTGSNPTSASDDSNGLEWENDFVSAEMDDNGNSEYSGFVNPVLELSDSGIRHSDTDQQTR
UniProt Q8IY63: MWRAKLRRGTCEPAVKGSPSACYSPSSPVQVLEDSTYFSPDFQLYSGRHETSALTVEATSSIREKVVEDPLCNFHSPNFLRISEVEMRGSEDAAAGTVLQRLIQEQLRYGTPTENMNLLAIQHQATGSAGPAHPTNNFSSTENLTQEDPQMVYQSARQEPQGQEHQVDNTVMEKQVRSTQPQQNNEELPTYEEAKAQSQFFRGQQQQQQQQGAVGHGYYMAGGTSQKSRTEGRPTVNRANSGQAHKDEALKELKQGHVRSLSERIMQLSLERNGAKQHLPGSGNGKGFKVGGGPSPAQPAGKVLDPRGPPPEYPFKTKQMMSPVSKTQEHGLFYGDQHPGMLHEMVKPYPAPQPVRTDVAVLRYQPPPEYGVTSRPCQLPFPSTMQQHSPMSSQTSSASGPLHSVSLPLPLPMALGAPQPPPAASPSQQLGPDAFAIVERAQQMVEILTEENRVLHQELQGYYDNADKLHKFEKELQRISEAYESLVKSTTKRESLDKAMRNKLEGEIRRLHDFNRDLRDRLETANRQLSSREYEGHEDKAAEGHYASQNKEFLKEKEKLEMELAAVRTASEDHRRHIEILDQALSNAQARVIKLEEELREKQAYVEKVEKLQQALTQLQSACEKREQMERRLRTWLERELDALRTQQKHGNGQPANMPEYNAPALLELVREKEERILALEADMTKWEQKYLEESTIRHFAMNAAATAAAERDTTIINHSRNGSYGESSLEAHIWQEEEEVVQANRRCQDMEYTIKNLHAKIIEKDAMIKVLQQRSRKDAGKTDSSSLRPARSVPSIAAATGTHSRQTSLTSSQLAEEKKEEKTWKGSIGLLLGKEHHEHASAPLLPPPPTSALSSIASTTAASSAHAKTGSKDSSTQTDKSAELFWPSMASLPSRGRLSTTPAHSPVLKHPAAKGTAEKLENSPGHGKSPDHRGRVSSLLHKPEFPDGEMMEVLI
UniProt Q96Q42: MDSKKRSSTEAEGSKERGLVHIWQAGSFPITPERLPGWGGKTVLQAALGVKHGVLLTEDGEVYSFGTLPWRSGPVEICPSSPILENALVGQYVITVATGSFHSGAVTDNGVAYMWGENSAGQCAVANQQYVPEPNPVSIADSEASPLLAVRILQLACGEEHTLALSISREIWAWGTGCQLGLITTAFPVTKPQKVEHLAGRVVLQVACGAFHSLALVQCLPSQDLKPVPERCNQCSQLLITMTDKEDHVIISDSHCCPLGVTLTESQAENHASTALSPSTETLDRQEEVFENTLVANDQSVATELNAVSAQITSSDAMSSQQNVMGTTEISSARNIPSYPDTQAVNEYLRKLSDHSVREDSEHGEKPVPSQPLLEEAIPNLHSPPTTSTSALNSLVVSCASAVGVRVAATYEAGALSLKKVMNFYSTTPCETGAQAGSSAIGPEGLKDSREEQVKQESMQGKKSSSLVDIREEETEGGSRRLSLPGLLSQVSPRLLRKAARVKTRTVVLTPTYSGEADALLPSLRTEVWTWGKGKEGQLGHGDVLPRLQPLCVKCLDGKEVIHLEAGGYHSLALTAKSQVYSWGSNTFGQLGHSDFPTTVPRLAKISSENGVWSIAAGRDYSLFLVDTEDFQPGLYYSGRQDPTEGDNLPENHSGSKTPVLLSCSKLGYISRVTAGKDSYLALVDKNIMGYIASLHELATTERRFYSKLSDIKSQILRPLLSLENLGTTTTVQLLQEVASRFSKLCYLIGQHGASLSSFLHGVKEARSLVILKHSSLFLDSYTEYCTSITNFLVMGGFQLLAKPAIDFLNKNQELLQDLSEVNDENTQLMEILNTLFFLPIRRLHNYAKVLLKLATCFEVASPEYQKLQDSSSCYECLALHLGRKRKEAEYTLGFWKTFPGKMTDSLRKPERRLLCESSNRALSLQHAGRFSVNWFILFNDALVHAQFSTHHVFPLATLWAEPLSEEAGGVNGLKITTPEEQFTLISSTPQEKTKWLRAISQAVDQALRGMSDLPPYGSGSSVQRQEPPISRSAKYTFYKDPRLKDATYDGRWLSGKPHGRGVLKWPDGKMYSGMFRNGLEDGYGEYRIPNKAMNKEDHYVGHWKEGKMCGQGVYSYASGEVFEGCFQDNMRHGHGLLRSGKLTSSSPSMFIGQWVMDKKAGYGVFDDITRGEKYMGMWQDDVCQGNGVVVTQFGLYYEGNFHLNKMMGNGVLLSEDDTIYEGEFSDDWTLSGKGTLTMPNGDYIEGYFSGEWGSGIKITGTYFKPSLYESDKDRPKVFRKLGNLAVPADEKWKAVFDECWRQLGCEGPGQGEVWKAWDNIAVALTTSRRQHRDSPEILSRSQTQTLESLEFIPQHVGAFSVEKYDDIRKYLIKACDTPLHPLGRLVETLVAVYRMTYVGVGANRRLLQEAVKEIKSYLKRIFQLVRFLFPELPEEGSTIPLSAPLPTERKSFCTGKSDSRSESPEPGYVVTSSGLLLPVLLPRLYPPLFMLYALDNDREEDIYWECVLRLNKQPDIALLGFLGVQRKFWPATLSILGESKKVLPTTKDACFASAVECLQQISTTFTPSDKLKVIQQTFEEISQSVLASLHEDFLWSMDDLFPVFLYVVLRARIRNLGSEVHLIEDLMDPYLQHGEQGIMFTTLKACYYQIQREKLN
UniProt Q4KMQ2: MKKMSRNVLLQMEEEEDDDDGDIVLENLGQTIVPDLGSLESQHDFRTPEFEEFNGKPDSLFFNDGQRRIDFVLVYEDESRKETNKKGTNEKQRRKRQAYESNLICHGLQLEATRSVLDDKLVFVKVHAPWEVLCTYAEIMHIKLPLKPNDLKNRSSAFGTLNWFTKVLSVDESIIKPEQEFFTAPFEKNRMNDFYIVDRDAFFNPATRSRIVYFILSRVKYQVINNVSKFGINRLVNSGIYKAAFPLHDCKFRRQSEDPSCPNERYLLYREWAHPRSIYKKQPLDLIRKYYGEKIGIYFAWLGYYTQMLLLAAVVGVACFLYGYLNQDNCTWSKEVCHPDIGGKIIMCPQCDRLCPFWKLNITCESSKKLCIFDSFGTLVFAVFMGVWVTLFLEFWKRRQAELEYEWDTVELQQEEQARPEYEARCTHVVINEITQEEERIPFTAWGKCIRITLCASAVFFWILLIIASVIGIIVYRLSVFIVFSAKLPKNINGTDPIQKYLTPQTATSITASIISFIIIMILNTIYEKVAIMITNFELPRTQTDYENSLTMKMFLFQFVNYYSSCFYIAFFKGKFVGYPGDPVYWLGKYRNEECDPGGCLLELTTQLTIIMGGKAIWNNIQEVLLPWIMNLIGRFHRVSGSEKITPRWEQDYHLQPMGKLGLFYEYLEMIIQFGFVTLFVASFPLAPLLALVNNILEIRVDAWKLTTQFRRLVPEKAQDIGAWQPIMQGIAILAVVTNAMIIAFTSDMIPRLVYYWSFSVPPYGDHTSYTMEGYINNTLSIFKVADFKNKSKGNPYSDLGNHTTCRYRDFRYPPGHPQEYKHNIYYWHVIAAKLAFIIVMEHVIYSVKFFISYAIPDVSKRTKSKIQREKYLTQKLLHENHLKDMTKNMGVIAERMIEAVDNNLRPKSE
UniProt Q8N6D5: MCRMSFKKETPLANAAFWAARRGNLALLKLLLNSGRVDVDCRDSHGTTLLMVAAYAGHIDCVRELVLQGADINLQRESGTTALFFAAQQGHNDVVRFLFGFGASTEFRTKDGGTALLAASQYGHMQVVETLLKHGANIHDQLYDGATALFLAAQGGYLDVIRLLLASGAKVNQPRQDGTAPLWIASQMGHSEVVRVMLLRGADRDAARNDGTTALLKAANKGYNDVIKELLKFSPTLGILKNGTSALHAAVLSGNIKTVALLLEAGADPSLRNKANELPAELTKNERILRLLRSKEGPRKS

[2] = compound: CC1=C(SC2=C1C(=N[C@H](C3=NN=C(N32)C)CC(=O)N)C4=CC=C(C=C4)Cl)C
How it was run: as §1

[3] = compound: CC1=C2C(=CC=C1)N=C(N(C2=O)C3=CC=CC=C3C)CN4C=NC5=C(N=CN=C54)N
How it was run: as §1

[4] = compound: Cc1sc2c(c1C)C(c1ccc(Cl)cc1)=N[C@@H](CC(=O)OC(C)(C)C)c1nnc(C)n1-2
How it was run: as §1

[5] = compound: c1ccc([C@@H]2C[C@H]2NC2CCNCC2)cc1
How it was run: as §1

Measured: log2 fold change

ANP32E (UniProt Q9BTT0)
inactive: [1] 0.043 | [2] -0.005 | [3] -0.053 | [4] -0.038 | [5] 0.026

ALDH1L2 (UniProt Q3SY69)
inactive: [1] 0.015 | [2] 0.041 | [3] 0.052 | [4] -0.009 | [5] -0.023

AP1AR (UniProt Q63HQ0)
inactive: [1] 0.143 | [2] -0.022 | [3] 0.024 | [5] -0.025

ANGPTL4 (UniProt M0R3A2)
inactive: [1] -0.007 | [2] 0.11 | [3] 0.003 | [5] 0.053

AMOTL1 (UniProt Q8IY63)
inactive: [1] -0.087 | [2] 0.018 | [3] -0.099 | [4] 0.16 | [5] 0.101

ALS2 (UniProt Q96Q42)
inactive: [1] -0.036 | [2] 0.042 | [3] 0.081 | [4] -0.043 | [5] 0.056

ANO6 (UniProt Q4KMQ2)
inactive: [1] 0.006 | [2] 0.023 | [3] -0.035 | [4] -0.02 | [5] -0.012

ANKRD29 (UniProt Q8N6D5)
inactive: [1] -0.102 | [2] -0.114 | [3] 0.178 | [4] -0.19 | [5] -0.196
